Results deposited as PubChem BioAssay AID1259308 (NCATS, 2017)
Screen: 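Genes whose loss raises luciferase production in HEK293 cells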 (primary screen). Cell system: human HEK293 embryonic kidney cells stably expressing firefly luciferase (HEK-CMV-Luc2-Hygro). Knock-down reagent: single siRNA against human genes, 0.8 pmol siRNA per well. Duration: 72 h. Measured: 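Luciferase light (ONE-Glo) measured on one replicate plate set and viability (CellTiter-Glo) on the other, scaled to a negative control siRNA, with robust z-scores and luciferase per cell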. Scale: total luciferase, z-score and total luciferase, % of control: higher = more reporter protein produced. Rule for the call: 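Active when the median/MAD z-score for overall luciferase is greater than 3; a gene was taken forward for validation with new siRNAs if at least two of its three siRNAs passed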. Calls: active = raised luciferase; inactive = no rise.
In all, the deposit lists about 59,000 reagents; shown is an unselected part. In the full data, about 1,510 (2.6%) were called active. 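Calls use total luciferase alone and ignore viability, so some active siRNAs may act by altering cell number.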 A number with no mark means an inactive call. Reagents against one gene are numbered here. Not all columns of the deposit are shown.

C4A #1 gave total luciferase, z-score -0.253; total luciferase, % of control 76.8.
Depletion of C4A #2 came out at: total luciferase, z-score -0.295; total luciferase, % of control 76.
With knock-down of C4A #3 the results were total luciferase, z-score 0.971; total luciferase, % of control 101.
For LMOD1 #1 the deposit lists total luciferase, z-score -0.235; total luciferase, % of control 77.2.
For LMOD1 #2, the values are total luciferase, z-score -1.62; total luciferase, % of control 49.6.
LMOD1 #3 scored total luciferase, z-score -1.73; total luciferase, % of control 47.4.
SLC25A46 #1 gave total luciferase, z-score 0.738; total luciferase, % of control 96.6.
For SLC25A46 #2, the values are total luciferase, z-score -0.124; total luciferase, % of control 79.4.
SLC25A46 #3 gave total luciferase, z-score -0.573; total luciferase, % of control 70.5.
After knock-down of CDCA8 #1, the record shows total luciferase, z-score -1.5; total luciferase, % of control 52.1.
Depletion of CDCA8 #2 came out at: total luciferase, z-score -2.05; total luciferase, % of control 41.1.
Against CDCA8 #3, the values are total luciferase, z-score -1.16; total luciferase, % of control 58.8.

Laid out differently: entries from further up.
{"gene knocked down":"SLC25A46","siRNA no.":2,"total luciferase, z-score":-0.124,"total luciferase, % of control":79.4}
{"gene knocked down":"SLC25A46","siRNA no.":3,"total luciferase, z-score":-0.573,"total luciferase, % of control":70.5}
